Assay results from the supplement of paper PMC10849652.
Some of the results follow.

Chains of the proteins cited; added tags and fusions are not shown. Lines headed by an entry give the natural chain unless they say otherwise; changes in a name come on top.
UniProt O43164: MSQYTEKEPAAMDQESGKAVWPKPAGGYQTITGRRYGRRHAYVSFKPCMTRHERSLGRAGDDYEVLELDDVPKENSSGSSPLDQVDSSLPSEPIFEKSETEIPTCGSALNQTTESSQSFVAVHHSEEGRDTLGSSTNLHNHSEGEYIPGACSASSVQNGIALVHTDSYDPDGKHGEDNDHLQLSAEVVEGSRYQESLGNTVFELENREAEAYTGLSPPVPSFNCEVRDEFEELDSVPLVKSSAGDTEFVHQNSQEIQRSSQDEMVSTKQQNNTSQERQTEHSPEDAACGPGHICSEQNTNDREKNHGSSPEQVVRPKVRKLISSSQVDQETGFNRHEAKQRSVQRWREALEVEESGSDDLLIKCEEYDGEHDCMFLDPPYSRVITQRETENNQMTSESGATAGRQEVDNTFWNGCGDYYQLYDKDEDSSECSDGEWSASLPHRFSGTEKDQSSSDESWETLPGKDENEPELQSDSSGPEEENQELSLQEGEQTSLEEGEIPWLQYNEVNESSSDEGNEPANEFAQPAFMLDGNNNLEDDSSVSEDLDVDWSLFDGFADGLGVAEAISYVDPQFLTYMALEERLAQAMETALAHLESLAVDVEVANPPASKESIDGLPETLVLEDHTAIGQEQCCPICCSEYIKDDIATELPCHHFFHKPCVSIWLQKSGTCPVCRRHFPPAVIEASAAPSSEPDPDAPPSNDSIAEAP
UniProt P27986, whole entry, looked up: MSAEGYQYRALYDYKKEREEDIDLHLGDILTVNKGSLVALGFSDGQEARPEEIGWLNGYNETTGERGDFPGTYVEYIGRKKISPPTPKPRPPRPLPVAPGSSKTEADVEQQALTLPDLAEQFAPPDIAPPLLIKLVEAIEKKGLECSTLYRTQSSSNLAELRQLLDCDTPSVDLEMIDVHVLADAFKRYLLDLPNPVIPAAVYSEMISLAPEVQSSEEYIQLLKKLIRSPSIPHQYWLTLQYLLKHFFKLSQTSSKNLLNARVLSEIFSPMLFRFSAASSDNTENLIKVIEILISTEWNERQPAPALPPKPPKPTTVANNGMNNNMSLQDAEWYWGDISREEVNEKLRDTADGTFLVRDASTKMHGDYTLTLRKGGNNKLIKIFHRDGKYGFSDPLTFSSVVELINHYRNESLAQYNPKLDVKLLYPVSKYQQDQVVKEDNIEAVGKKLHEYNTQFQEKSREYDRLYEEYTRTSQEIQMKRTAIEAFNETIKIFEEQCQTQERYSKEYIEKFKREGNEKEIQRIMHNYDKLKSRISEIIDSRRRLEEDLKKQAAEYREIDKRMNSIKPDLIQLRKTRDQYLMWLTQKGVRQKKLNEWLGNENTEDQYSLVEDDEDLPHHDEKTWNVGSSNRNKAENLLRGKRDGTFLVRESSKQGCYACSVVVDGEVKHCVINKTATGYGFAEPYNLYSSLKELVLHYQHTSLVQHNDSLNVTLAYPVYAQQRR
UniProt P42338: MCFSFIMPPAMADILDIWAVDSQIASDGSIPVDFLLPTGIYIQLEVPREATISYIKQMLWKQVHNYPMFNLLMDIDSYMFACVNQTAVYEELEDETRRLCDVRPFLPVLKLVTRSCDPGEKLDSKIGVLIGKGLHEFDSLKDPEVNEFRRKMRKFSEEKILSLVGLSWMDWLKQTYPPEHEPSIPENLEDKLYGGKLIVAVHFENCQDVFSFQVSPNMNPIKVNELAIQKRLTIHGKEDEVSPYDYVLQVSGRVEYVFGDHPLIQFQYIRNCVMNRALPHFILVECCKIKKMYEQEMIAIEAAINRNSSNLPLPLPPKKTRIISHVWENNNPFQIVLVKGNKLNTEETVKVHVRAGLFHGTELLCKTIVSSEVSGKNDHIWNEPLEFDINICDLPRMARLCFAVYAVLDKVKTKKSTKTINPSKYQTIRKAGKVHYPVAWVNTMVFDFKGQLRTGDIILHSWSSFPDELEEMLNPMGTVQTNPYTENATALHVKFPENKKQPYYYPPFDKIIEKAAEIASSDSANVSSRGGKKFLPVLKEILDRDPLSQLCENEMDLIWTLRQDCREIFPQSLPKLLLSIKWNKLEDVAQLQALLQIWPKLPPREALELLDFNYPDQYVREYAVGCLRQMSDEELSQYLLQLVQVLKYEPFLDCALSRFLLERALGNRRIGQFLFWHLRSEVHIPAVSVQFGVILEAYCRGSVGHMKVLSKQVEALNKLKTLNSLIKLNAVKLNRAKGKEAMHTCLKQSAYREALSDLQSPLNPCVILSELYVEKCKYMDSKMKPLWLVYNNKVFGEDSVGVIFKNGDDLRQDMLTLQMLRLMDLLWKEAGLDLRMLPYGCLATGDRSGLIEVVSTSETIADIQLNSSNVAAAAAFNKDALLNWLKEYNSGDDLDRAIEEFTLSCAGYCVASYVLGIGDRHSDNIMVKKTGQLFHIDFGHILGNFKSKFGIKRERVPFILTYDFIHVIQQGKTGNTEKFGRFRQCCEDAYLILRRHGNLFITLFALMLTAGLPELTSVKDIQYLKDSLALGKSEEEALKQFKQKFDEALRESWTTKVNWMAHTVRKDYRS
UniProt P0C869: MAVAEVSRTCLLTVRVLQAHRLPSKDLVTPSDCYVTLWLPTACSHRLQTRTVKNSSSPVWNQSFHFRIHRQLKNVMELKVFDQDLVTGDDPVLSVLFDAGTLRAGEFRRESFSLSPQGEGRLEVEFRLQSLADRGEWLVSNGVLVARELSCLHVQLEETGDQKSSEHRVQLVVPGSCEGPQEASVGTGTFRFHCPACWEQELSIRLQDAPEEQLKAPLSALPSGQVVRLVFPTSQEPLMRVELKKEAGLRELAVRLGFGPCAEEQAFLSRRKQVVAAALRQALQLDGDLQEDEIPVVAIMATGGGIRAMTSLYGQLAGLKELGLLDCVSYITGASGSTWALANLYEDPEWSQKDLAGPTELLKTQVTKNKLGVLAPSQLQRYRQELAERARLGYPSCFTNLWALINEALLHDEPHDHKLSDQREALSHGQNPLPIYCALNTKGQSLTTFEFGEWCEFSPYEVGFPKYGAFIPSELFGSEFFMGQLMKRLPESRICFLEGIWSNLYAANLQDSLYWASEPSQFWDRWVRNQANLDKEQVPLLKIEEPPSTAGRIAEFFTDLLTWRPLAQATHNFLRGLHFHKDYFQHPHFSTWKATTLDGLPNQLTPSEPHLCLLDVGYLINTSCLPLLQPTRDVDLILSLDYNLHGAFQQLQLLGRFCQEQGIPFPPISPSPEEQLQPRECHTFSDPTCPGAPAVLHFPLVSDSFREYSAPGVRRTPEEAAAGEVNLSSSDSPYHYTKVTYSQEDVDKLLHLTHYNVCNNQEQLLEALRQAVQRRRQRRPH
UniProt Q969N2: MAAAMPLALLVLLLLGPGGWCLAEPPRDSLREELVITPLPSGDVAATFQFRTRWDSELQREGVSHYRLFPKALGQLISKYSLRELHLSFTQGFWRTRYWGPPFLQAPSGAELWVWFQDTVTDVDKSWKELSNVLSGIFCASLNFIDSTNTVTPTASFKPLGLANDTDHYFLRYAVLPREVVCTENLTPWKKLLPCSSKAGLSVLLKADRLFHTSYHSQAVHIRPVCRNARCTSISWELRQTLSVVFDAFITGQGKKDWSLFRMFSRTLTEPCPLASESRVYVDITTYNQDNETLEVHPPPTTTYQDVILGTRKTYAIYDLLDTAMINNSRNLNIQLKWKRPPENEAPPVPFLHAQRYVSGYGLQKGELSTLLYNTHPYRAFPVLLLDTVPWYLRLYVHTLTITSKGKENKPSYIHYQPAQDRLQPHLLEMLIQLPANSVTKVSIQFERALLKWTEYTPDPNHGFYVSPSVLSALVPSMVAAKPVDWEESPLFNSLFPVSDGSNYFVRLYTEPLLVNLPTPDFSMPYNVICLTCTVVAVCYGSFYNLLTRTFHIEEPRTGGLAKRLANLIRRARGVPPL
UniProt Q9H814, whole entry, looked up: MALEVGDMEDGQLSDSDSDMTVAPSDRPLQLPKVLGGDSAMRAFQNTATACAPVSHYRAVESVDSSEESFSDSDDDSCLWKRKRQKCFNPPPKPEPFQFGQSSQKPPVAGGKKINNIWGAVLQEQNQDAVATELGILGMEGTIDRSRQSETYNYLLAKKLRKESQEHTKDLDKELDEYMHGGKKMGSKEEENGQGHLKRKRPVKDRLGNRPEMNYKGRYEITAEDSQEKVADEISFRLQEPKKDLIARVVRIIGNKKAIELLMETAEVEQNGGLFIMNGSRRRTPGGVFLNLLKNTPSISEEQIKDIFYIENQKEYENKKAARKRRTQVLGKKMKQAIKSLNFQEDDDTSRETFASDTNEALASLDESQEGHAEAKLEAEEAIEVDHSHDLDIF
UniProt Q9UG56: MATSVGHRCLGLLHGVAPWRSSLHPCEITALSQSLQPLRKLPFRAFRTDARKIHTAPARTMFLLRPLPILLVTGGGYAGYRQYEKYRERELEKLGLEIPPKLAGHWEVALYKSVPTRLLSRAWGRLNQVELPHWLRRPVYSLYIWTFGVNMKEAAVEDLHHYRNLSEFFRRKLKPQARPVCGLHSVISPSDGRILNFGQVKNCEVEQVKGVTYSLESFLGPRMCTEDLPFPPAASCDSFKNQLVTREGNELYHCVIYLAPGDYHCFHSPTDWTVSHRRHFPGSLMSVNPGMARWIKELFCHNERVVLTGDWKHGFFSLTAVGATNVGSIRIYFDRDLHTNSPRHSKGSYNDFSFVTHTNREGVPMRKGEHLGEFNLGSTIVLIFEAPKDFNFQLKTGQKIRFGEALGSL
UniProt Q8NCC3: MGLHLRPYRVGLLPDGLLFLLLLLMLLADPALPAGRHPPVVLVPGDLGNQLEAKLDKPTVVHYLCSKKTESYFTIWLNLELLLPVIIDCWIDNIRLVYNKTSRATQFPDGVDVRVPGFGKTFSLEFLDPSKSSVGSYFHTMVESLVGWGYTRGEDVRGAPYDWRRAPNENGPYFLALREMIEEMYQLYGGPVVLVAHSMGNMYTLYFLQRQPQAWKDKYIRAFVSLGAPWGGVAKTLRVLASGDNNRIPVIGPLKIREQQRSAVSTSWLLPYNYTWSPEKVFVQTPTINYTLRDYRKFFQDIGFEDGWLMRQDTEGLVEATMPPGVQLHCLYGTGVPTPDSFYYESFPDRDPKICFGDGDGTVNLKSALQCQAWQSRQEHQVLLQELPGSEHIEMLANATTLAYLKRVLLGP

Assays:
Assay in all cases: log2 fold change, soluble protein after heating vs DMSO (PISA); higher = thermal stabilisation; K562 cells, 10 uM, 30 min; active = over 0.2 and 3.5 SD of the protein, either way, in both replicates (recomputed)
saracatinib = compound: CN1CCN(CCOc2cc(OC3CCOCC3)c3c(Nc4c(Cl)ccc5c4OCO5)ncnc3c2)CC1 [saracatinib]
Outline: (§1)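 Aliquots of K562 cells (2×10^6 cells/mL) treated with 10 μM compound for 30 min were heated for 3 min over 48°C-58°C. After pooling and extraction in PBS with 0.5% NP-40 at 4°C, soluble protein from a 21,000xg, 90 min spin was quantified by TMTpro 16plex LC-MS/MS with channel sums equalised. Thermal stability is expressed against control samples, from duplicates, as a log2 fold change.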

sotrastaurin = compound: CN1CCN(c2nc(C3=C(c4c[nH]c5ccccc45)C(=O)NC3=O)c3ccccc3n2)CC1 [sotrastaurin]
Outline: as §1

Tubastatin A = compound: CN1CCc2c(c3ccccc3n2Cc2ccc(C(=O)NO)cc2)C1 [Tubastatin A]
Outline: as §1

[1] = compound: CNC(=O)C1=CC=CC=C1NC2=NC(=NC=C2Cl)NC3=C(C=C(C=C3)N4CCOCC4)OC
Outline: as §1

defactinib = compound: CNC(=O)c1ccc(Nc2ncc(C(F)(F)F)c(NCc3nccnc3N(C)S(C)(=O)=O)n2)cc1 [defactinib]
Outline: as §1

rucaparib = compound: CNCc1ccc(-c2[nH]c3cc(F)cc4c3c2CCNC4=O)cc1 [rucaparib]
Outline: as §1

[2] = compound: CNc1nc(-c2ccc3c(N)n[nH]c3c2)cc(N2C[C@@H](C(=O)NC3CCCCC3)CC[C@H]2C)n1
Outline: as §1

encorafenib = compound: COC(=O)N[C@@H](C)CNc1nccc(-c2cn(C(C)C)nc2-c2cc(Cl)cc(NS(C)(=O)=O)c2F)n1 [encorafenib]
Outline: as §1

[3] = compound: COC(=O)[C@H](CCSC)NC(=O)C1=C(C=C(C=C1)NC[C@H](CS)N)C2=CC=CC=C2
Outline: as §1

[4] = compound: COC1=CC=C(C=C1)CN2C=CC3=C2C=C(C=C3)C(=O)NO
Outline: as §1

filanesib = compound: CON(C)C(=O)N1N=C(c2cc(F)ccc2F)S[C@@]1(CCCN)c1ccccc1 [filanesib]
Outline: as §1

zotarolimus = compound: CO[C@H]1C[C@@H]2CC[C@@H](C)[C@@](O)(O2)C(=O)C(=O)N2CCCC[C@H]2C(=O)O[C@H]([C@H](C)C[C@@H]2CC[C@H](n3cnnn3)[C@H](OC)C2)CC(=O)[C@H](C)/C=C(\C)[C@@H](O)[C@@H](OC)C(=O)[C@H](C)C[C@H](C)/C=C/C=C/C=C/1C [zotarolimus]
Outline: as §1

idasanutlin = compound: COc1cc(C(=O)O)ccc1NC(=O)[C@@H]1N[C@@H](CC(C)(C)C)[C@](C#N)(c2ccc(Cl)cc2F)[C@H]1c1cccc(Cl)c1F [idasanutlin]
Outline: as §1

alisertib = compound: COc1cc(Nc2ncc3c(n2)-c2ccc(Cl)cc2C(c2c(F)cccc2OC)=NC3)ccc1C(=O)O [alisertib]
Outline: as §1

[5] = compound: COc1cc2nc(-c3cc(F)ccc3O)nc(N[C@@H]3CNC[C@H]3C(C)(C)O)c2cc1OC
Outline: as §1

gefitinib = compound: COc1cc2ncnc(Nc3ccc(F)c(Cl)c3)c2cc1OCCCN1CCOCC1 [gefitinib]
Outline: as §1

[6] = compound: COc1cccc2cc(-c3nc([C@H]4CC[C@H](C(=O)O)CC4)n4ncnc(N)c34)[nH]c12
Outline: as §1

lapatinib = compound: CS(=O)(=O)CCNCc1ccc(-c2ccc3ncnc(Nc4ccc(OCc5cccc(F)c5)c(Cl)c4)c3c2)o1 [lapatinib]
Outline: as §1

pictilisib = compound: CS(=O)(=O)N1CCN(Cc2cc3nc(-c4cccc5[nH]ncc45)nc(N4CCOCC4)c3s2)CC1 [pictilisib]
Outline: as §1

alvocidib = compound: CN1CC[C@H](c2c(O)cc(O)c3c(=O)cc(-c4ccccc4Cl)oc23)[C@H](O)C1 [alvocidib]
Outline: as §1

Measured: log2 fold change

PJA2 (UniProt O43164)
inactive: saracatinib -0.057 | sotrastaurin -0.014 | Tubastatin A 0.061 | [1] -0.013 | defactinib -0.003 | rucaparib 0.004 | [2] -0.053 | encorafenib -0.003 | [3] 0.049 | [4] -0.022 | filanesib 0.004 | zotarolimus -0.071 | idasanutlin 0.11 | alisertib -0.008 | [5] 0.024 | gefitinib -0.016 | [6] 0.001 | lapatinib -0.001 | pictilisib -0.049

PIK3R1 (UniProt P27986)
inactive: saracatinib 0.014 | sotrastaurin 0.001 | Tubastatin A -0.017 | [1] -0.014 | defactinib -0.06 | rucaparib 0.052 | [2] 0.022 | encorafenib 0.08 | [3] -0.024 | [4] 0.01 | filanesib -0.041 | zotarolimus -0.002 | idasanutlin -0.027 | alisertib -0.075 | [5] 0.054 | gefitinib 0.045 | [6] 0.014 | lapatinib -0.005 | pictilisib 0.048

PIK3CB (UniProt P42338)
inactive: saracatinib -0.019 | sotrastaurin 0.01 | Tubastatin A 0.001 | [1] -0.011 | defactinib -0.04 | rucaparib 0.014 | [2] 0.042 | encorafenib -0.015 | [3] -0.003 | [4] 0.063 | filanesib 0.007 | zotarolimus 0.042 | idasanutlin -0.041 | alisertib 0.003 | [5] 0.02 | gefitinib 0.048 | [6] 0.01 | lapatinib 0.001
active: pictilisib 0.258

PLA2G4B isoform 6 (UniProt P0C869)
inactive: saracatinib -0.15 | sotrastaurin -0.066 | alvocidib -0.004 | Tubastatin A 0.266 | defactinib 0.035 | [2] 0.006 | [3] -0.002 | [4] 0.126 | filanesib 0.013 | zotarolimus 0.032 | idasanutlin -0.134 | alisertib 0.083 | [5] -0.175 | gefitinib 0.196 | [6] -0.057 | lapatinib 0.007 | pictilisib 0.024

PIGT (UniProt Q969N2)
inactive: saracatinib -0.024 | sotrastaurin -0.023 | Tubastatin A -0.052 | [1] 0.029 | defactinib 0.012 | rucaparib -0.002 | [2] 0.013 | encorafenib 0.048 | [3] -0.015 | [4] -0.004 | filanesib 0 | zotarolimus 0.012 | idasanutlin -0.02 | alisertib -0.081 | [5] 0.046 | gefitinib -0.006 | [6] -0.013 | lapatinib 0.027 | pictilisib -0.007

PHAX (UniProt Q9H814)
inactive: saracatinib 0.013 | sotrastaurin 0.001 | Tubastatin A 0.003 | [1] -0.028 | defactinib -0.138 | rucaparib -0.031 | [2] -0.037 | encorafenib -0.034 | [3] 0.037 | [4] -0.01 | filanesib 0.045 | zotarolimus 0.004 | idasanutlin 0.018 | alisertib -0.057 | [5] -0.09 | gefitinib 0.007 | [6] 0.032 | lapatinib 0.039 | pictilisib 0.002

PIGM (UniProt Q9H3S5)
inactive: saracatinib -0.064 | sotrastaurin -0.023 | alvocidib 0.047 | [1] -0.043 | defactinib 0.124 | rucaparib -0.012 | [2] 0.159 | encorafenib 0.292 | [3] 0.103 | [4] 0.166 | filanesib 0.046 | zotarolimus 0.095 | gefitinib 0.042

PISD (UniProt Q9UG56)
inactive: saracatinib -0.095 | sotrastaurin 0.061 | Tubastatin A 0.019 | [1] 0.026 | defactinib -0.054 | rucaparib 0.06 | encorafenib 0.063 | [3] 0.028 | [4] -0.018 | filanesib -0.012 | zotarolimus 0.015 | idasanutlin -0.074 | alisertib -0.024 | [5] 0.148 | gefitinib 0.008 | [6] 0.012 | lapatinib -0.009 | pictilisib 0.036
active: [2] 0.252

PLA2G15 (UniProt Q8NCC3)
inactive: saracatinib -0.052 | sotrastaurin -0.095 | Tubastatin A 0.036 | [1] 0.065 | defactinib 0.012 | rucaparib -0.064 | [2] -0.036 | encorafenib 0.176 | [3] -0.018 | [4] -0.041 | filanesib -0.076 | zotarolimus -0.007 | idasanutlin 0.01 | alisertib 0.095 | [5] 0.03 | gefitinib 0.001 | [6] 0.056 | lapatinib -0.001 | pictilisib -0.01
